Reference: article PMC10652042

Chains of the proteins cited; added tags and fusions are not shown.
UniProt P63167: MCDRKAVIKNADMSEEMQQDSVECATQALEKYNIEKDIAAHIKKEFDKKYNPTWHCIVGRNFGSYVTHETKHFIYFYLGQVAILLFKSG
UniProt P63168: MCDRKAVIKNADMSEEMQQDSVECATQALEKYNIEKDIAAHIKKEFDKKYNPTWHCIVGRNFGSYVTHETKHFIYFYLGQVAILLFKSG

Key:
[1] = target: T1, ACTL7B fused to eGFP (mouse) (UniProt Q9QY83); experiment: affinity purification with mass spectrometry; GFP nanobody-coupled magnetic beads (GFP-Trap) on lysate of HEK cells stably expressing Actl7b-eGFP; eluate in Laemmli's buffer; targeted mass spectrometry analysis
T1 sequence: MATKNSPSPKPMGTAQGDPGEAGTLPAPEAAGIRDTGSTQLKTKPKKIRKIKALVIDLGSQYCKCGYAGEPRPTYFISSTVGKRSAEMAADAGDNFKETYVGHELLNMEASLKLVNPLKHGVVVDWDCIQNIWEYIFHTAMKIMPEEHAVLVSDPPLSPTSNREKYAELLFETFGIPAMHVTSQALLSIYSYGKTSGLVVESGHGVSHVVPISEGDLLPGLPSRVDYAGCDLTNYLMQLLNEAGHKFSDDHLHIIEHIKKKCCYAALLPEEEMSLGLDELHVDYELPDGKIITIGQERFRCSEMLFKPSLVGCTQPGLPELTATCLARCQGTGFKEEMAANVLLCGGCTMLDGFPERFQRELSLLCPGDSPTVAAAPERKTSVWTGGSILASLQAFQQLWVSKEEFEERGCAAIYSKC

[2] = target: T2, ACTL7B (mouse (endogenous in testis)) (UniProt Q9QY83); experiment: affinity purification with mass spectrometry; anti-ACTL7B antibody coupled to Dynabeads, co-immunoprecipitation from protein extracts of whole wild-type mouse testes; uncoupled beads as control; eluate identified by LC/MS
T2 sequence: T1 sequence

Row | Substance | binding [1] | binding [2]
1 | DYNLL1 (from UniProt P63167 1-89) | binds | –
2 | dynein light chain 1 (DYNLL1) (from UniProt P63168 1-89) | – | binds

Results are given in words; binding and its absence hold for the method and conditions named. In cells and extracts the contact can be indirect. A yes stands for co-enrichment or nearness to the bait. Other partners may have been found. For some assays here: Tags and fused reporters may be left off the sequences shown.
